Experimental data reported in patent US7803350B2, “Radioactive arsenic-containing compounds and their uses in the treatment of tumors” (Institute of Nuclear Energy Research Rocaec, priority 2003, dated 2010).
Values joined by “and” are separate entries in the source; they are usually repeats but may differ in a detail not shown here. Equal values may be shown once. “Also recorded” adds a separate entry of the source. At least one compound was matched to its structure with a doubt left.

Key:
Assay type in all cases: in vivo
[1] = tested on: N1-S1 rat hepatoma liver tumors; assay: Therapeutic effect assessment, continuous tail vein injection, rats with liver tumors; settings: individual rats, continuous tail vein injection 0.45 mg/kg for two weeks
From the text: (§1) The tumor cells for the establishment of the animal model with liver tumor were of a rat hepatoma cell line, N1-S-1, purchased from the American Type Culture Collection (ATCC, P.O. Box 1549, Manassas, Va. 20108 USA), and were subcultured to set up a Master Cell Bank and a Working Cell Bank.
(§2) The rat hepatoma cells, N1-S1, were suspended cells that were dispersed in Iscove's Modified Dulbecco's Medium (IMDM) (GibcoBRL®) supplemented with 1% penicillin (GibcoBRL®) and 10% fetal bovine serum (GibcoBRL®), and were cultured in an incubator with 5% CO2, at 37° C.
(§3) When cultured to 1.5×10^6 cell/ml, 4×10^6 cell/0.06 ml of N1-S1 cells were sampled and then implanted into Spawn-Dawley male rats (5-week-old, 150 g) between the liver and liver capsule by surgery, and the wounds were closed by sutures. Rearing of the rats was continued for ten days, and ultrasonic scanning was used to detect any growth of liver tumor and tumor size. After scanning, animals that had developed liver tumors were used to conduct the experiments of tumor growth inhibition, and euthanasia was practiced on the rest of the rats.
The rats with liver tumors were given normal saline, an injection solution containing arsenic trioxide without neutron irradiation treatment (concentration: 1 mg/ml; animal injection dosage: 0.45 mg/kg), and the injection solution prepared in Example 1 which contained radioactive arsenic trioxide having subjected to neutron irradiation treatment (radioactivity range: 2.77˜3.25 mCi/ml; concentration: 1 mg/ml; and animal injection dosage: 0.45 mg/kg), respectively, via tail vein injection, and the injection was continued for two weeks.
(§4) Before injection, the size of the liver tumors was examined by ultrasonic scanning. Ultrasonic scanning was conducted in the first week, the second week, and the fifth week, respectively, after start of the injection so as to observe the change in size of the tumor. Finally, the rats were sacrificed for observing whether there was metastasis.

[2] = tested on: N1-S1 rat hepatoma liver tumors; assay: Therapeutic effect assessment, hepatic artery single injection, rats with liver tumors; settings: individual rats, hepatic artery single injection 0.45 mg/kg
From the text: as §1, §2, §3
The blood vessels of the hepatic artery were dissected from the hepatic tissue of the rats by surgery, and normal saline, an injection solution containing arsenic trioxide without neutron irradiation treatment (concentration: 1 mg/ml; and animal injection dosage: 0.45 mg/kg), and the injection solution prepared in Example 1 which contained radioactive arsenic trioxide having subjected to neutron irradiation treatment (radioactivity range: 2.77˜3.25 mCi/ml; concentration: 1 mg/ml; and animal injection dosage: 0.45 mg/kg dose), were injected respectively via the hepatic artery in single injections.
as §4, with “injection” for “injection so as”

[3] = tested on: N1-S1 rat hepatoma liver tumors; assay: Therapeutic effect assessment, liver tumor direct injection, rats with liver tumors; settings: individual rats, liver tumor direct injection 0.45 mg/kg once every week, twice in total
From the text: as §1, §2, §3
The rats with liver tumors were subjected to surgery. After the locations of the liver tumors were found, the tumors were directly injected with normal saline, an injection containing arsenic trioxide without neutron irradiation treatment (concentration: 1 mg/ml; animal injection dosage: 0.45 mg/kg), and the injection prepared in Example 1 which contained radioactive arsenic trioxide having subjected to neutron irradiation treatment (radiation activity range: 2.77˜3.25 mCi/ml; concentration: 1 mg/ml of concentration; and animal injection dosage: 0.45 mg/kg), respectively, once every week, twice in total.
as §4, with “injection” for “injection so as”

`O=[76As]O[76As]=O` (centres unmarked) [Radioactive arsenic trioxide, radioactive arsenic trioxide] was tested, and the “Tumor Size Before injection” value ([1]; baseline, ultrasonic scanning) was 1.21 × 0.92 cm × cm and 1.68 × 1.18 cm × cm and 1.26 × 1.01 cm × cm and 1.20 × 0.834 cm × cm and 1.84 × 0.815 cm × cm, the “Increase (In) or Decrease (de) % of tumor size” value (“Increase (In) or Decrease (de) %” below) [1] was “De 40.53%; also recorded: De 74.87%; also recorded: De 28.89%; also recorded: De 82.64%; also recorded: De 59.08%” and the “Tumor Size After injection Week 1” value [1] was 2.06 × 1.53 cm × cm and 2.32 × 1.46 cm × cm and 2.16 × 1.62 cm × cm and 1.96 × 1.48 cm × cm and 0.998 × 0.684 cm × cm. For the same molecule, the “Tumor Size After injection Week 2” value [1] was 1.73 × 1.44 cm × cm and 1.90 × 1.45 cm × cm and 1.89 × 1.79 cm × cm and 1.42 × 0.954 cm × cm and 0.943 × 0.516 cm × cm, the “Tumor Size After injection Week 5” value [1] was 1.49 × 1.24 cm × cm and 1.08 × 0.78 cm × cm and 1.67 × 1.49 cm × cm and 0.906 × 0.556 cm × cm and 0.919 × 0.304 cm × cm and the “Tumor Size Before injection” value ([2]; baseline, ultrasonic scanning) was 0.940 × 0.414 cm × cm and 0.683 × 0.539 cm × cm and 0.875 × 0.600 cm × cm and 0.783 × 0.598 cm × cm. For the same molecule, the “Increase (In) or Decrease (de) %” value [2] was “De 100%; also recorded: De 56.60%”, the “Tumor Size After injection Week 1” value [2] was 1.71 × 0.775 cm × cm and 0.25 × 0.989 cm × cm and 1.27 × 1.07 cm × cm and 0.878 × 0.625 cm × cm and the “Tumor Size After injection Week 2” value [2] was 2.29 × 1.51 cm × cm and 1.79 × 1.09 cm × cm. For the same molecule, the “Tumor Size After injection Week 5” value [2] was 0.972 × 0.819 cm × cm, the “Tumor Size Before injection” value ([3]; baseline, ultrasonic scanning) was 1.33 × 0.675 cm × cm and 1.03 × 0.711 cm × cm and 0.728 × 0.700 cm × cm and the “Increase (In) or Decrease (de) %” value [3] was “De 57.81%; also recorded: De 66.22%; also recorded: De 78.48%”. For the same molecule, the “Tumor Size After injection Week 1” value [3] was 1.10 × 0.700 cm × cm and 1.10 × 0.747 cm × cm and 0.945 × 0.600 cm × cm and the “Tumor size After injection Week 4” value [3] was 0.506 × 0.642 cm × cm and 0.708 × 0.392 cm × cm and 0.500 × 0.244 cm × cm.
